{"source": "PubChem BioAssay AID1159599 (NIAID, 2016)", "screen": "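Mouse macrophage genes that control Tnf-alpha promoter output upon LPS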", "cell system": "mouse RAW264.7 G9 macrophage reporter clone cells", "knock-down reagent": "single siRNA against mouse genes", "timing": "48 to 72 h after siRNA transfection, LPS for the last 16 h", "challenge": "LPS (Salmonella minnesota R595), 16 h before fixation; dose not stated", "detection": "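Nuclear mCherry from a Tnf promoter reporter imaged after LPS, background removed, robust z-score from per-plate median and MAD, averaged over replicates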", "reading the numbers": "Tnf reporter z-score: higher = stronger Tnf promoter reporter signal after LPS", "hit rule": "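Active when the replicate-mean Tnf reporter z-score is about -1.5 or lower, or about 1.5 or higher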", "calls": "active = strong change either way; inactive = little change", "note": "In all, the deposit lists 756 reagents; below is a random part of them. 130 of them (17%) were called active. 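Calls are two-sided: actives include siRNAs that raised the Tnf reporter as well as ones that lowered it.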 A number with no mark means an inactive call. The numbers tell different reagents against one gene apart. Not given: the amount of reagent."}
{"Target gene": "Akt2 (Akt serine/threonine kinase 2)", "reagent": 1, "Tnf reporter z-score, replicate mean": -0.448}
{"Target gene": "Akt2 (Akt serine/threonine kinase 2)", "reagent": 2, "Tnf reporter z-score, replicate mean": "-2.33 (active)"}
{"Target gene": "Akt2 (Akt serine/threonine kinase 2)", "reagent": 3, "Tnf reporter z-score, replicate mean": -0.454}
{"Target gene": "Akt2 (Akt serine/threonine kinase 2)", "reagent": 4, "Tnf reporter z-score, replicate mean": "-2.06 (active)"}
{"Target gene": "Akt2 (Akt serine/threonine kinase 2)", "reagent": 5, "Tnf reporter z-score, replicate mean": -1.08}
{"Target gene": "Akt2 (Akt serine/threonine kinase 2)", "reagent": 6, "Tnf reporter z-score, replicate mean": -0.615}
{"Target gene": "Nfkb2", "reagent": 1, "Tnf reporter z-score, replicate mean": -0.532}
{"Target gene": "Nfkb2", "reagent": 2, "Tnf reporter z-score, replicate mean": -0.855}
{"Target gene": "Nfkb2", "reagent": 3, "Tnf reporter z-score, replicate mean": -1.41}
{"Target gene": "Nfkb2", "reagent": 4, "Tnf reporter z-score, replicate mean": 0.525}
{"Target gene": "Nfkb2", "reagent": 5, "Tnf reporter z-score, replicate mean": 1.29}
{"Target gene": "Nfkb2", "reagent": 6, "Tnf reporter z-score, replicate mean": -1.37}
{"Target gene": "Tirap", "reagent": 1, "Tnf reporter z-score, replicate mean": -1.05}
{"Target gene": "Tirap", "reagent": 2, "Tnf reporter z-score, replicate mean": -0.948}
{"Target gene": "Tirap", "reagent": 3, "Tnf reporter z-score, replicate mean": "-1.95 (active)"}
{"Target gene": "Tirap", "reagent": 4, "Tnf reporter z-score, replicate mean": "-1.9 (active)"}
{"Target gene": "Tirap", "reagent": 5, "Tnf reporter z-score, replicate mean": -0.86}
{"Target gene": "Tirap", "reagent": 6, "Tnf reporter z-score, replicate mean": "-2.55 (active)"}
{"Target gene": "Il1b (interleukin 1 beta)", "reagent": 1, "Tnf reporter z-score, replicate mean": 0.346}
{"Target gene": "Il1b (interleukin 1 beta)", "reagent": 2, "Tnf reporter z-score, replicate mean": "-1.56 (active)"}
{"Target gene": "Il1b (interleukin 1 beta)", "reagent": 3, "Tnf reporter z-score, replicate mean": -0.805}
{"Target gene": "Il1b (interleukin 1 beta)", "reagent": 4, "Tnf reporter z-score, replicate mean": -0.27}
{"Target gene": "Il1b (interleukin 1 beta)", "reagent": 5, "Tnf reporter z-score, replicate mean": 1}
{"Target gene": "Il1b (interleukin 1 beta)", "reagent": 6, "Tnf reporter z-score, replicate mean": 0.384}

In a second layout: results already given.
Nfkb2 #1 | Tnf reporter z-score, replicate mean: -0.532
Nfkb2 #2 | Tnf reporter z-score, replicate mean: -0.855
Nfkb2 #3 | Tnf reporter z-score, replicate mean: -1.41
